According to the supplement of paper PMC10849652:
Some of the results follow.

By UniProt entry, the sequences of proteins in these tests, tags left out. Where a name states a change or a piece, a line headed by the entry shows the natural chain unless it says otherwise.
UniProt O75113: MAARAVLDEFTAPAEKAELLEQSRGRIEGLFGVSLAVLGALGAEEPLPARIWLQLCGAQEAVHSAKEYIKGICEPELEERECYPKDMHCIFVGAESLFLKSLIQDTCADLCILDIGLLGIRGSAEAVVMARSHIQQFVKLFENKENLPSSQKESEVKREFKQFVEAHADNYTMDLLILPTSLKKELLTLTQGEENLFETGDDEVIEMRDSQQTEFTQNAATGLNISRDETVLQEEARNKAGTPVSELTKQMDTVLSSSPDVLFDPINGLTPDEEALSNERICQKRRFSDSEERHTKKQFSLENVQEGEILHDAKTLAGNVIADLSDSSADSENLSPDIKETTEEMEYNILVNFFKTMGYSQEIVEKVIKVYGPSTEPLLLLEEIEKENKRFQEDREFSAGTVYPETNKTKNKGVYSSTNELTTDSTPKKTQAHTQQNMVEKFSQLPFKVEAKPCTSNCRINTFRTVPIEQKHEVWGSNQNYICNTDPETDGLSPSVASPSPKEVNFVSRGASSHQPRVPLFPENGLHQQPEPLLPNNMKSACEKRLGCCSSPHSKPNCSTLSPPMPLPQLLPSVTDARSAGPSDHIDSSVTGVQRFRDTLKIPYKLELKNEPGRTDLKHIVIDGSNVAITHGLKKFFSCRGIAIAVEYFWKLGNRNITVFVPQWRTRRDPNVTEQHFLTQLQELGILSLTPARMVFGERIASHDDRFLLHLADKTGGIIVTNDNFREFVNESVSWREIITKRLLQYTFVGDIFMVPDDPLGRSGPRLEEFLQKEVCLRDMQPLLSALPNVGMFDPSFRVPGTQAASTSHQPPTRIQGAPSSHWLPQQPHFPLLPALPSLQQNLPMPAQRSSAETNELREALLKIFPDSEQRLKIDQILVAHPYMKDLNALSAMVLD
UniProt Q4G0N4: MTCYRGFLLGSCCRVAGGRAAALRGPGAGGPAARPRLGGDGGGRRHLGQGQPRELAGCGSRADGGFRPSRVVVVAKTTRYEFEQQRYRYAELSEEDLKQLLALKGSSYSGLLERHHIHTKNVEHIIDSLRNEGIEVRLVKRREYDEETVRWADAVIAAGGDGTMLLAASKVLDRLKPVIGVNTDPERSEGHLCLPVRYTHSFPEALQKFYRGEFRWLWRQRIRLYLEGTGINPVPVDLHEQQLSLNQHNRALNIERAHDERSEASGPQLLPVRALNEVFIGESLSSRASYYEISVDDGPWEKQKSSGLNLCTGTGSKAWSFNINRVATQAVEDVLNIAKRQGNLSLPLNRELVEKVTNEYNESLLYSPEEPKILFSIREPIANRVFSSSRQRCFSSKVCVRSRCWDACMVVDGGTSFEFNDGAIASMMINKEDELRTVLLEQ
UniProt Q969V3: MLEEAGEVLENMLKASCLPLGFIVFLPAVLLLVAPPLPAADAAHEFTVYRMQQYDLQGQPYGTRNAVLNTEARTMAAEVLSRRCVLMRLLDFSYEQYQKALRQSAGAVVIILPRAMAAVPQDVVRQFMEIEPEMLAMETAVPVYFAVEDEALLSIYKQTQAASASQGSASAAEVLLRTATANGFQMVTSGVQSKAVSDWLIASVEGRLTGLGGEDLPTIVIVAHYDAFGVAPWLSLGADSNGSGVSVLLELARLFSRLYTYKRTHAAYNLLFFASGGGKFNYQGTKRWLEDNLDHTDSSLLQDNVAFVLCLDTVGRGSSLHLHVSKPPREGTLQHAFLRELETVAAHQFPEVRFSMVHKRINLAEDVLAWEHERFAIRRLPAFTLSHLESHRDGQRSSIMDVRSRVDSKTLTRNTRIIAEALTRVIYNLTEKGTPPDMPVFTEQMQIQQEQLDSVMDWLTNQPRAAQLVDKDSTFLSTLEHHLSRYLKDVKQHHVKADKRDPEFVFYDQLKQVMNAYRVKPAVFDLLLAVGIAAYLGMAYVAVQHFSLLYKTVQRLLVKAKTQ
UniProt Q9BXJ9: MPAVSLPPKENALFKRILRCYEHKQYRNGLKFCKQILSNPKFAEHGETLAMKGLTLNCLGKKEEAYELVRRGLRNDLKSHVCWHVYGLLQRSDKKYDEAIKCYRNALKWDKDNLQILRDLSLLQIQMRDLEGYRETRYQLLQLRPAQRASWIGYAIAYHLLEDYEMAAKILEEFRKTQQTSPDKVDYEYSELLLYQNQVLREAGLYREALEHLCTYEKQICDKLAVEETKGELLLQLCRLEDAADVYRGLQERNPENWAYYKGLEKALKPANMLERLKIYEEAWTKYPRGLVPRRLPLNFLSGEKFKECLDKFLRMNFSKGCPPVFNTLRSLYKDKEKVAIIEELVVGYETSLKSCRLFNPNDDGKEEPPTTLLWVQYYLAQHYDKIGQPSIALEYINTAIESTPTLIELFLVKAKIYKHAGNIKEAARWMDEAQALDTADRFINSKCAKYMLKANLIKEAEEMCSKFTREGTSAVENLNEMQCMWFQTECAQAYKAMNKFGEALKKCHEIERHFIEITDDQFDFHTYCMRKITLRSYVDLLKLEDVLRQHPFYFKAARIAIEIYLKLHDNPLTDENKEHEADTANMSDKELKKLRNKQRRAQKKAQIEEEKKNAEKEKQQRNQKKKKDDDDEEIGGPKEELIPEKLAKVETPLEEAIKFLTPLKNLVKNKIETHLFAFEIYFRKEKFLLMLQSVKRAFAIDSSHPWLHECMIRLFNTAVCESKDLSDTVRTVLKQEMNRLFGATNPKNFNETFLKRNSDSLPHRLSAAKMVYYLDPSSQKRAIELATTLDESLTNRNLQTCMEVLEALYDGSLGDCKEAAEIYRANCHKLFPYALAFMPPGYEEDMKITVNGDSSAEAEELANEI
UniProt O75489, whole entry, looked up: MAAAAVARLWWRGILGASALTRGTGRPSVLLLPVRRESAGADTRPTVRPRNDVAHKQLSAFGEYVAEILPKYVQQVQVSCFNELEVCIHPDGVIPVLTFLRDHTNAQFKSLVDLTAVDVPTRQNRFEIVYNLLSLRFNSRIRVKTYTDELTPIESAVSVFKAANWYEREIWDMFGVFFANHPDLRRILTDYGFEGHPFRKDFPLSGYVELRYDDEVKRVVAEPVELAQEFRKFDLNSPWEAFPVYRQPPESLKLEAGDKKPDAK
UniProt Q6NZ67, whole entry, looked up: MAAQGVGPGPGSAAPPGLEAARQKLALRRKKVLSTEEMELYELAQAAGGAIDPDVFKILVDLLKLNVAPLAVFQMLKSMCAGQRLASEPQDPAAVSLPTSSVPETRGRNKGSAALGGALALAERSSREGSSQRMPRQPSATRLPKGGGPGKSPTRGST
UniProt Q86XI2: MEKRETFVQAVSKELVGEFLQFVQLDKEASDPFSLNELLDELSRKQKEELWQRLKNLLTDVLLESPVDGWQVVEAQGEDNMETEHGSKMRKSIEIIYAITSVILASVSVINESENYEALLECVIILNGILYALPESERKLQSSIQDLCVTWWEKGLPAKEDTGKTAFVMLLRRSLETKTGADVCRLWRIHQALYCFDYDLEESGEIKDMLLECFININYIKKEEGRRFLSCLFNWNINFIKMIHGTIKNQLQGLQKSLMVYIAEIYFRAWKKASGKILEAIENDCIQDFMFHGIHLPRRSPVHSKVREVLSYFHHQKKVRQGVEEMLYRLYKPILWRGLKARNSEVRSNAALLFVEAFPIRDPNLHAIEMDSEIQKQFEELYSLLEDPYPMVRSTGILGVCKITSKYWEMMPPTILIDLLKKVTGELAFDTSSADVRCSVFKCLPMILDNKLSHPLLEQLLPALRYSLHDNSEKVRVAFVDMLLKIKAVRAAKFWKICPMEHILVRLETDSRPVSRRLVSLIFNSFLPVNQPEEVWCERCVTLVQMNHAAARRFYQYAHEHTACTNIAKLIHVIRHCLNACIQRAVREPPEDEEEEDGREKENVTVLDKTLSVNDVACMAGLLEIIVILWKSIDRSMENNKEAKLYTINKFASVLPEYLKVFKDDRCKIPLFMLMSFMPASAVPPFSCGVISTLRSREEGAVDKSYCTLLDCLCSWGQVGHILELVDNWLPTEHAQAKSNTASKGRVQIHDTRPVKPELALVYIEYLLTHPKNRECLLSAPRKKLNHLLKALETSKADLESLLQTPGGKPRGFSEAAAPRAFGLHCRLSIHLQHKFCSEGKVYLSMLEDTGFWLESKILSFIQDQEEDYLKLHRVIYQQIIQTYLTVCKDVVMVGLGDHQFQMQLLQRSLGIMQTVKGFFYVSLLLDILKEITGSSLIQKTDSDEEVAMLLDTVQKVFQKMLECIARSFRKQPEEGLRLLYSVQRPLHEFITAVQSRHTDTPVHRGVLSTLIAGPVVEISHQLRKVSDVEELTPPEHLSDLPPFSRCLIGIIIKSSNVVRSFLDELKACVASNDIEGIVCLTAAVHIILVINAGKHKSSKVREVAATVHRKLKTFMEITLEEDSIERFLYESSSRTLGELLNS
UniProt Q9BU61: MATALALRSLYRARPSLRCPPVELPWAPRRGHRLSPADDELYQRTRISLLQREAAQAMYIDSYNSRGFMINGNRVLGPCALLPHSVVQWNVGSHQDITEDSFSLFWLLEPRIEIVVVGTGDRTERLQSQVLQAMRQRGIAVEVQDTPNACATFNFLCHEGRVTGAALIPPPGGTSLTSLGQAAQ
UniProt Q6P582, whole entry, looked up: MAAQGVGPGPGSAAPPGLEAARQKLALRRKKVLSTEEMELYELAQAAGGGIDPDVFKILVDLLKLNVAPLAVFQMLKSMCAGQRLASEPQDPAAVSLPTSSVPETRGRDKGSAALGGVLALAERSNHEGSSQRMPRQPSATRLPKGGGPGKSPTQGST
UniProt P19404, whole entry, looked up: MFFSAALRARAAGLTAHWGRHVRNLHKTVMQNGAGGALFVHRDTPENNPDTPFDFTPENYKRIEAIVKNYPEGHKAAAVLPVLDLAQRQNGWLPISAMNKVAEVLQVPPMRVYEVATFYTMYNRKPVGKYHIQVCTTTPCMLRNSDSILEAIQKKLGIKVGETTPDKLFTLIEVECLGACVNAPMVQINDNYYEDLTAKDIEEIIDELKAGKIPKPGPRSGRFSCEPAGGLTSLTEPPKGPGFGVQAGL
UniProt O43920, whole entry, looked up: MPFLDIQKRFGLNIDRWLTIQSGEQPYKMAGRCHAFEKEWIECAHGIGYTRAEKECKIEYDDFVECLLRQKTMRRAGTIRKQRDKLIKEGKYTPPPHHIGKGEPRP
UniProt Q14CX7, whole entry, looked up: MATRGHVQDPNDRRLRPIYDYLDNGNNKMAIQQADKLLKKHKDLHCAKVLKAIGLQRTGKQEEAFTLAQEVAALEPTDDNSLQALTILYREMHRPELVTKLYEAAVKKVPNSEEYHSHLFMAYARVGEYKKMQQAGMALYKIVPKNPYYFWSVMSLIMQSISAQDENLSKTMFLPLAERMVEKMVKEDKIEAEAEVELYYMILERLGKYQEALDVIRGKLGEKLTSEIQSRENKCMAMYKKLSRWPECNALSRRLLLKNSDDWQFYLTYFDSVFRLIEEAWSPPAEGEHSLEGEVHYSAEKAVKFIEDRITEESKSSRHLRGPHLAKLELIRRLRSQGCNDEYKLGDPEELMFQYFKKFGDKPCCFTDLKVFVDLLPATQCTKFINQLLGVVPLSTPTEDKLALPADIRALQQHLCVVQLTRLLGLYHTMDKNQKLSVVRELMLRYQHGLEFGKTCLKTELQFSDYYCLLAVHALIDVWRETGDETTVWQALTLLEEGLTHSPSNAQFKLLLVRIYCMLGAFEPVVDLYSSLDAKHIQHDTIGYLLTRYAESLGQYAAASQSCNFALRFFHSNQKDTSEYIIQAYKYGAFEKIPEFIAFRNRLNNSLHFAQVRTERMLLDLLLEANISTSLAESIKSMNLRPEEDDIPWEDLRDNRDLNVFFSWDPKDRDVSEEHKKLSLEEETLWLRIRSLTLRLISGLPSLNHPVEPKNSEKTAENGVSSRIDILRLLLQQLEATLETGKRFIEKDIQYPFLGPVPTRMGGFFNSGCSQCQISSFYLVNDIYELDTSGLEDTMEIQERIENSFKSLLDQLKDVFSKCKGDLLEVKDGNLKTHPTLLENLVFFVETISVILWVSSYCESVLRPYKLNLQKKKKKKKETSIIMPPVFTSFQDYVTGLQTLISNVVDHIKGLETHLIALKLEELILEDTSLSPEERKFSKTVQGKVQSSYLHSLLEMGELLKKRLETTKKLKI
UniProt Q9UHQ1: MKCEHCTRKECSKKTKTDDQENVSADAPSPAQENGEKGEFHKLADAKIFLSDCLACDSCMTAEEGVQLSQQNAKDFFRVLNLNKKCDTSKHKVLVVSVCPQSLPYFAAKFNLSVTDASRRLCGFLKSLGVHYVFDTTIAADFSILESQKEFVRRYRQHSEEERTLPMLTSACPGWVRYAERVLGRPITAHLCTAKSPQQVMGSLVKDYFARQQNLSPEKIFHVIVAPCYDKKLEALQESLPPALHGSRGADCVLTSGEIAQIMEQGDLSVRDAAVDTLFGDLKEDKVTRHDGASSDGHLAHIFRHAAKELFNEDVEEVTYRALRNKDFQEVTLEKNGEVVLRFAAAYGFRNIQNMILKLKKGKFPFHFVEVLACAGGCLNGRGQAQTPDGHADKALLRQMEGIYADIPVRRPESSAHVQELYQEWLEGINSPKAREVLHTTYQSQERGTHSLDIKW

What was measured:
Test in all cases: log2 fold change, soluble protein after heating vs DMSO (PISA); higher = thermal stabilisation; K562 cells, 10 uM, 30 min; active = over 0.2 and 3.5 SD of the protein, either way, in both replicates (recomputed)
[1] = compound: COC1=CC=C(C=C1)CN2C=CC3=C2C=C(C=C3)C(=O)NO
In short: (§1)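 Soluble protein was quantified by TMTpro 16plex LC-MS/MS after channel sums were equalised. It was obtained as the supernatant after 21,000xg for 90 min from pooled aliquots of K562 cells (2×10^6 cells/mL, 10 μM compound, 30 min) heated for 3 min across 48°C-58°C and extracted in PBS with 0.5% NP-40 at 4°C. Thermal stability values are relative to control samples and come from duplicates. They are given as log2 fold changes.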

filanesib = compound: CON(C)C(=O)N1N=C(c2cc(F)ccc2F)S[C@@]1(CCCN)c1ccccc1 [filanesib]
In short: as §1

zotarolimus = compound: CO[C@H]1C[C@@H]2CC[C@@H](C)[C@@](O)(O2)C(=O)C(=O)N2CCCC[C@H]2C(=O)O[C@H]([C@H](C)C[C@@H]2CC[C@H](n3cnnn3)[C@H](OC)C2)CC(=O)[C@H](C)/C=C(\C)[C@@H](O)[C@@H](OC)C(=O)[C@H](C)C[C@H](C)/C=C/C=C/C=C/1C [zotarolimus]
In short: as §1

idasanutlin = compound: COc1cc(C(=O)O)ccc1NC(=O)[C@@H]1N[C@@H](CC(C)(C)C)[C@](C#N)(c2ccc(Cl)cc2F)[C@H]1c1cccc(Cl)c1F [idasanutlin]
In short: as §1

alisertib = compound: COc1cc(Nc2ncc3c(n2)-c2ccc(Cl)cc2C(c2c(F)cccc2OC)=NC3)ccc1C(=O)O [alisertib]
In short: as §1

[2] = compound: COc1cc2nc(-c3cc(F)ccc3O)nc(N[C@@H]3CNC[C@H]3C(C)(C)O)c2cc1OC
In short: as §1

gefitinib = compound: COc1cc2ncnc(Nc3ccc(F)c(Cl)c3)c2cc1OCCCN1CCOCC1 [gefitinib]
In short: as §1

[3] = compound: COc1cccc2cc(-c3nc([C@H]4CC[C@H](C(=O)O)CC4)n4ncnc(N)c34)[nH]c12
In short: as §1

lapatinib = compound: CS(=O)(=O)CCNCc1ccc(-c2ccc3ncnc(Nc4ccc(OCc5cccc(F)c5)c(Cl)c4)c3c2)o1 [lapatinib]
In short: as §1

pictilisib = compound: CS(=O)(=O)N1CCN(Cc2cc3nc(-c4cccc5[nH]ncc45)nc(N4CCOCC4)c3s2)CC1 [pictilisib]
In short: as §1

[4] = compound: CS(=O)(=O)c1ccc(-c2cnc(N)c(C(=O)Nc3ccccc3)n2)cc1
In short: as §1

crizotinib = compound: C[C@@H](Oc1cc(-c2cnn(C3CCNCC3)c2)cnc1N)c1c(Cl)ccc(F)c1Cl [crizotinib]
In short: as §1

[5] = compound: C[C@@H]1COCCN1C2=NC(=NC(=C2)C3(CC3)S(=O)(=O)C)C4=C5C=CNC5=CC=C4
In short: as §1

[6] = compound: C[C@H](C1=CC=C(C=C1)C(=O)NC2=C3C=CNC3=NC=C2)N
In short: as §1

duvelisib = compound: C[C@H](Nc1ncnc2nc[nH]c12)c1cc2cccc(Cl)c2c(=O)n1-c1ccccc1 [duvelisib]
In short: as §1

gandotinib = compound: Cc1cc(Nc2cc(CN3CCOCC3)c3nc(C)c(Cc4ccc(Cl)cc4F)n3n2)n[nH]1 [gandotinib]
In short: as §1

tozasertib = compound: Cc1cc(Nc2cc(N3CCN(C)CC3)nc(Sc3ccc(NC(=O)C4CC4)cc3)n2)n[nH]1 [tozasertib]
In short: as §1

[7] = compound: Cc1cc(SCc2sc(-c3ccc(C(F)(F)F)cc3)nc2C)ccc1OCC(=O)O
In short: as §1

doramapimod = compound: Cc1ccc(-n2nc(C(C)(C)C)cc2NC(=O)Nc2ccc(OCCN3CCOCC3)c3ccccc23)cc1 [doramapimod]
In short: as §1

ispinesib = compound: Cc1ccc(C(=O)N(CCCN)[C@@H](c2nc3cc(Cl)ccc3c(=O)n2Cc2ccccc2)C(C)C)cc1 [ispinesib]
In short: as §1

Measured: log2 fold change

NAP1L4 isoform 2 (UniProt Q99733)
inactive: [1] -0.014 | filanesib 0.026 | zotarolimus 0.018 | idasanutlin -0.036 | alisertib -0.031 | [2] 0.056 | gefitinib 0.001 | [3] -0.002 | lapatinib 0.037 | pictilisib 0.048 | [4] 0.022 | crizotinib 0.046 | [5] 0.009 | [6] -0.038 | duvelisib 0.008 | gandotinib -0.073 | tozasertib 0.01 | [7] -0.001 | doramapimod -0.008 | ispinesib 0.091

N4BP1 (UniProt O75113)
inactive: [1] 0.098 | filanesib 0.081 | zotarolimus 0.171 | idasanutlin 0.005 | alisertib 0.184 | [2] 0.237 | gefitinib 0.044 | [3] -0.06 | lapatinib -0.046 | pictilisib 0.138 | [4] 0.027 | crizotinib 0 | [5] 0.03 | [6] -0.084 | duvelisib 0.107 | gandotinib 0.182 | tozasertib -0.036 | [7] -0.103 | doramapimod 0.009 | ispinesib -0.198

NADK2 (UniProt Q4G0N4)
inactive: [1] -0.036 | filanesib -0.011 | zotarolimus -0.015 | idasanutlin -0.029 | alisertib -0.066 | [2] 0.018 | gefitinib 0.031 | [3] 0.035 | lapatinib -0.023 | pictilisib 0.016 | [4] 0.013 | crizotinib 0.069 | [5] 0.03 | [6] 0.013 | duvelisib 0.037 | gandotinib -0.034 | tozasertib -0.035 | [7] -0.04 | doramapimod -0.024 | ispinesib 0.013

NCLN (UniProt Q969V3)
inactive: [1] -0.069 | filanesib -0.027 | zotarolimus 0.006 | idasanutlin -0.001 | alisertib -0.05 | [2] -0.047 | gefitinib 0.006 | [3] -0.009 | lapatinib 0.006 | pictilisib -0.047 | [4] 0.009 | crizotinib -0.013 | [5] 0.002 | [6] 0.064 | duvelisib -0.013 | gandotinib -0.013 | tozasertib 0.035 | [7] 0.016 | doramapimod 0.023 | ispinesib -0.09

NAA15 (UniProt Q9BXJ9)
inactive: [1] 0.004 | filanesib -0.052 | zotarolimus 0.022 | idasanutlin -0.035 | alisertib 0.022 | [2] 0.006 | gefitinib 0.025 | [3] 0.015 | lapatinib 0 | pictilisib -0.03 | [4] 0.018 | crizotinib -0.024 | [5] 0.049 | [6] -0.101 | duvelisib -0.002 | gandotinib -0.081 | tozasertib -0.026 | [7] 0 | doramapimod -0.004 | ispinesib 0.021

NDUFS3 (UniProt O75489)
inactive: [1] 0.006 | filanesib -0.078 | zotarolimus 0.003 | idasanutlin -0.064 | alisertib -0.093 | [2] -0.033 | gefitinib -0.026 | [3] 0.027 | lapatinib 0.021 | pictilisib 0.003 | [4] -0.01 | crizotinib -0.068 | [5] 0.085 | [6] -0.015 | duvelisib 0.064 | gandotinib -0.077 | tozasertib -0.004 | [7] 0.021 | doramapimod -0.059 | ispinesib -0.039

MZT2B (UniProt Q6NZ67)
inactive: [1] -0.072 | filanesib -0.002 | zotarolimus -0.025 | idasanutlin 0.184 | alisertib 0.049 | [2] -0.124 | gefitinib -0.082 | [3] -0.035 | lapatinib 0.059 | pictilisib -0.071 | [4] -0.015 | crizotinib 0.099 | [5] -0.154 | [6] -0.118 | duvelisib -0.116 | gandotinib 0.028 | tozasertib -0.052 | [7] 0.031 | doramapimod 0.141 | ispinesib 0.044

NCR3LG1 (UniProt Q68D85)
inactive: [1] 0.035 | filanesib 0.087 | zotarolimus -0.026 | idasanutlin 0.055 | alisertib -0.067 | [2] 0.087 | gefitinib -0.05 | [3] 0.041 | lapatinib 0.05 | pictilisib 0.122 | [4] 0.064 | crizotinib 0.047 | [5] -0.071 | [6] -0.049 | duvelisib 0.031 | gandotinib -0.168 | tozasertib -0.035 | [7] 0.076 | doramapimod 0.032 | ispinesib 0.072

NCAPG2 isoform 2 (UniProt Q86XI2)
inactive: [1] -0.099 | filanesib 0.152 | zotarolimus -0.062 | idasanutlin 0.058 | alisertib -0.012 | [2] 0.177 | gefitinib -0.15 | [3] -0.069 | lapatinib -0.029 | pictilisib -0.037 | [4] -0.004 | crizotinib 0.203 | [5] -0.17 | [6] 0.285 | duvelisib -0.07 | gandotinib 0.147 | tozasertib 0.113 | [7] 0.265 | doramapimod -0.084 | ispinesib -0.183

NDUFAF3 (UniProt Q9BU61)
inactive: [1] 0.012 | filanesib -0.163 | zotarolimus 0.016 | idasanutlin -0.088 | alisertib -0.028 | [2] -0.077 | gefitinib 0.01 | [3] 0.06 | lapatinib 0.068 | pictilisib 0.075 | [4] 0.041 | crizotinib -0.006 | [5] 0.178 | [6] -0.108 | duvelisib 0.137 | gandotinib -0.021 | tozasertib -0.006 | [7] -0.007 | doramapimod 0.013 | ispinesib 0.01

MZT2A (UniProt Q6P582)
inactive: [1] 0.024 | filanesib 0.016 | zotarolimus -0.038 | idasanutlin -0.015 | alisertib -0.027 | [2] -0.087 | gefitinib -0.031 | [3] -0.025 | lapatinib 0.091 | pictilisib -0.081 | [4] -0.084 | crizotinib 0.039 | [5] 0.057 | [6] -0.058 | duvelisib 0.111 | gandotinib -0.316 | tozasertib -0.014 | [7] -0.008 | doramapimod -0.005 | ispinesib -0.032

NDUFV2 (UniProt P19404)
inactive: [1] -0.033 | filanesib -0.003 | zotarolimus 0.02 | idasanutlin 0.004 | alisertib 0.092 | [2] 0.031 | gefitinib -0.009 | [3] 0.029 | lapatinib -0.032 | pictilisib -0.031 | [4] -0.022 | crizotinib -0.047 | [5] 0.036 | [6] -0.03 | duvelisib -0.014 | gandotinib 0.012 | tozasertib -0.057 | [7] 0.007 | doramapimod 0.017 | ispinesib -0.016

NDE1 isoform 1 (UniProt Q9NXR1)
inactive: [1] -0.004 | filanesib -0.002 | zotarolimus -0.025 | idasanutlin 0.007 | alisertib -0.041 | [2] -0.016 | gefitinib -0.033 | [3] 0 | lapatinib 0.029 | pictilisib 0.013 | [4] -0.027 | crizotinib 0.026 | [5] 0.026 | [6] -0.041 | duvelisib 0.026 | gandotinib 0.022 | tozasertib -0.041 | [7] -0.003 | doramapimod 0.014 | ispinesib -0.009

NDUFS5 (UniProt O43920)
inactive: [1] -0.042 | filanesib 0.017 | zotarolimus -0.044 | idasanutlin -0.004 | alisertib 0.02 | [2] -0.046 | gefitinib -0.035 | [3] 0.083 | lapatinib -0.058 | pictilisib 0.041 | [4] 0.022 | crizotinib -0.008 | [5] 0.01 | [6] 0.034 | duvelisib 0.051 | gandotinib -0.007 | tozasertib 0 | [7] -0.006 | doramapimod 0.011 | ispinesib -0.124

NAA25 (UniProt Q14CX7)
inactive: [1] 0.021 | filanesib -0.091 | zotarolimus 0.068 | idasanutlin -0.02 | alisertib -0.029 | [2] 0.014 | gefitinib 0.027 | [3] 0.079 | lapatinib -0.003 | pictilisib 0.012 | [4] 0.062 | crizotinib -0.124 | [5] 0.111 | [6] -0.052 | duvelisib 0.005 | gandotinib -0.01 | tozasertib -0.011 | [7] 0.061 | doramapimod 0.015 | ispinesib 0.08

NARF (UniProt Q9UHQ1)
inactive: [1] -0.114 | filanesib 0.088 | zotarolimus 0.029 | idasanutlin 0.003 | alisertib 0.03 | [2] 0.024 | gefitinib -0.026 | [3] -0.011 | lapatinib -0.03 | pictilisib -0.03 | [4] 0.007 | crizotinib 0.047 | [5] -0.012 | [6] -0.007 | duvelisib -0.036 | gandotinib -0.001 | tozasertib -0.008 | [7] -0.024 | doramapimod 0.021 | ispinesib 0.033
